The values below come from PMC10238393 (2023).

The target in this experiment is T1, LPHN2 olfactomedin-like (Olf) domain (human, UniProt O95490 135-394).
T1 chain: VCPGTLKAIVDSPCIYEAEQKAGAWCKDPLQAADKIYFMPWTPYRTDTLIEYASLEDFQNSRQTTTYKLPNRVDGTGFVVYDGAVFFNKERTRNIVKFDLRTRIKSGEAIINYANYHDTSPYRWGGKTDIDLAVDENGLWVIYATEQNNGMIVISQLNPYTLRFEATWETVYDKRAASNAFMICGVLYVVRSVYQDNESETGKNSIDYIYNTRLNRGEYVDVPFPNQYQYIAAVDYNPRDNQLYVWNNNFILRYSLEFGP
Description: ELISA; solid-phase binding assay: LPHN2 extracellular domain variants (100 nM) coated on MaxiSorp 96-well plates, 1 h room temperature, blocked with 1% BSA; 0.001-10 μM LRG1 forms added; detected with anti-LRG1 antibody and peroxidase-conjugated secondary antibody; both purified. A general note: In an ELISA, binding on a coated surface is turned into a signal by an enzyme label.

These are yes or no findings as the source states them, for the method shown. Some binding calls cover weakened binding; strength is not graded here.

B1: Deglycosylated LRG1 (LRG1 treated with PNGase F) (natural protein)
chain: VTLSPKDCQVFRSDHGSSISCQPPAEIPGYLPADTVHLAVEFFNLTHLPANLLQGASKLQELHLSSNGLESLSPEFLRPVPQLRVLDLTRNALTGLPPGLFQASATLDTLVLKENQLEVLEVSWLHGLKALGHLDLSGNRLRKLPPGLLANFTLLRTLDLGENQLETLPPDLLRGPLQLERLHLEGNKLQVLGKDLLLPQPDLRYLFLNGNKLARVAAGAFQGLRQLDMLDLSNNSLASVPEGLWASLGQPNWDMRDGFDISGNPWICDQNLSDLYRWLQAQKDKMFSQNDTRCAGPEAVKGQTLLAVAKSQ
modifications: N-glycans removed by PNGase F; Alexa 647-conjugated in the FACS assay
B1: the binding result is listed as “binds”.
